Test results: PMC5371411
These are yes or no findings as the source states them, for the method shown. Some results given as binding are weak or reduced against the parent protein; the word gives no strength.

Protein sequences, listed by entry. Tags and fused reporters are not part of them.
UniProt Q47184: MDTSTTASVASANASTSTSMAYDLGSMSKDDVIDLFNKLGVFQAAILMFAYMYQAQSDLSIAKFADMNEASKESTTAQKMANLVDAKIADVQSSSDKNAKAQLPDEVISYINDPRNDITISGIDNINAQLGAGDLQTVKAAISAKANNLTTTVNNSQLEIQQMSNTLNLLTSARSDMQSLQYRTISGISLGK

Key:
[1] = biological target: His-EspCΔMiddle (enteropathogenic Escherichia coli (EPEC)) (UniProt Q9EZE7); assay: far-Western, overlay or dot blot; both purified
[2] = biological target: His-EspCΔMiddle (enteropathogenic Escherichia coli (EPEC)) (UniProt Q9EZE7); assay: far-Western, overlay or dot blot; dot blot overlay under nondenaturing conditions: EspC and derivatives (2.5, 5, 10, 20 nM) adsorbed to nitrocellulose, incubated with His-EspA at 5 µg/ml in binding buffer for 1.5 h; detected with anti-EspA; both purified

His-EspA (from UniProt Q47184 1-192)
binding [1]: binds
binding [2]: binds
